Reference: PubChem BioAssay AID652259 (Drosophila RNAi Screening Center, 2013)

Aim: 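Identify new Wingless signalling regulators in fly cells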 (primary screen)
System: Drosophila clone 8 imaginal disc epithelial cells
Reagents: long dsRNA against Drosophila genes
Treatment: pathway stimulated by co-transfected Wingless expression plasmid
Measurement: 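Firefly luciferase from a tcf-site Wingless reporter, measured alongside co-transfected Renilla luciferase that tracks transfection; pathway stimulated by a Wingless plasmid; the firefly-to-Renilla ratio is not deposited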
Scale: firefly reporter light: higher = more Wg reporter light, before normalisation; Renilla control light: higher = more transfected or surviving cells
Call rule: 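a knock-down is a candidate when at least two out of four statistical tests show it departing from its plate mean; one test alone signals a weak candidate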
Meaning of the calls: active = candidate regulator (raises or lowers reporter); inactive = not a candidate
The deposit covers about 22,000 reagents; shown is an unselected part of those with a known target gene and a result. Of all reagents, 233 (1.1%) got an active call. 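Light values are raw, unnormalised plate reads; the ratio scores behind the reporter calls were not deposited.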 The numbers tell different reagents against one gene apart. A plus sign joins genes that one reagent is predicted to hit. The record does not give: the amount of reagent, the time to read-out, the dose of the treatment.

Knock-down of ric8b + ric8a resulted in: firefly reporter light, replicate 1 = 19897; Renilla control light, replicate 1 = 9240; inactive.
After knock-down of Wnt10 #1, the screen gave firefly reporter light, replicate 1 = 21804; Renilla control light, replicate 1 = 10204; inactive.
After knock-down of Wnt10 #2, the record shows firefly reporter light, replicate 1 = 2170; firefly reporter light, replicate 2 = 4984; Renilla control light, replicate 1 = 605; Renilla control light, replicate 2 = 1890; inactive.
CG9445 scored firefly reporter light, replicate 1 = 3256; firefly reporter light, replicate 2 = 5866; Renilla control light, replicate 1 = 263; Renilla control light, replicate 2 = 3193; inactive.
otp #1 gave reporter change call, replicate 1 = Wg reporter activity raised; firefly reporter light, replicate 1 = 4898; firefly reporter light, replicate 2 = 11956; Renilla control light, replicate 1 = 460; Renilla control light, replicate 2 = 1376; active.
After knock-down of otp #2 the results were firefly reporter light, replicate 1 = 3431; firefly reporter light, replicate 2 = 12080; Renilla control light, replicate 1 = 528; Renilla control light, replicate 2 = 1894; inactive.
For Cp18, the values are firefly reporter light, replicate 1 = 1574; firefly reporter light, replicate 2 = 7859; Renilla control light, replicate 1 = 1228; Renilla control light, replicate 2 = 3692; inactive.
Against Est-6 the deposit lists firefly reporter light, replicate 1 = 5449; Renilla control light, replicate 1 = 2391; inactive.
wac showed firefly reporter light, replicate 1 = 5653; Renilla control light, replicate 1 = 2000; inactive.
With knock-down of nod #1 the results were firefly reporter light, replicate 1 = 3348; Renilla control light, replicate 1 = 884; inactive.
nod #2 showed firefly reporter light, replicate 1 = 1984; firefly reporter light, replicate 2 = 4096; Renilla control light, replicate 1 = 922; Renilla control light, replicate 2 = 1980; inactive.
Against Cyp4c3, the entry reads firefly reporter light, replicate 1 = 2985; firefly reporter light, replicate 2 = 5912; Renilla control light, replicate 1 = 963; Renilla control light, replicate 2 = 1909; inactive.
For CG31955, the values are firefly reporter light, replicate 1 = 3496; firefly reporter light, replicate 2 = 8048; Renilla control light, replicate 1 = 1232; Renilla control light, replicate 2 = 3498; inactive.
With knock-down of CG9287 #1 the results were firefly reporter light, replicate 1 = 2969; firefly reporter light, replicate 2 = 8835; Renilla control light, replicate 1 = 932; Renilla control light, replicate 2 = 3703; inactive.
CG9287 #2 showed firefly reporter light, replicate 1 = 5.30e5; firefly reporter light, replicate 2 = 5.05e5; Renilla control light, replicate 1 = 2.15e5; Renilla control light, replicate 2 = 2.61e5; inactive.
Ldh scored firefly reporter light, replicate 1 = 1648; firefly reporter light, replicate 2 = 7424; Renilla control light, replicate 1 = 1126; Renilla control light, replicate 2 = 2869; inactive.
cert showed firefly reporter light, replicate 1 = 4272; Renilla control light, replicate 1 = 1668; inactive.
Depletion of DhpD gave: firefly reporter light, replicate 1 = 5931; Renilla control light, replicate 1 = 2250; inactive.
For Tango14, the entry reads firefly reporter light, replicate 1 = 4165; firefly reporter light, replicate 2 = 9427; Renilla control light, replicate 1 = 1472; Renilla control light, replicate 2 = 3445; inactive.
With knock-down of CG31792 the results were firefly reporter light, replicate 1 = 1713; firefly reporter light, replicate 2 = 6944; Renilla control light, replicate 1 = 352; Renilla control light, replicate 2 = 2284; inactive.
With knock-down of CG32267, the record shows firefly reporter light, replicate 1 = 5.18e5; firefly reporter light, replicate 2 = 4.93e5; Renilla control light, replicate 1 = 1.20e5; Renilla control light, replicate 2 = 1.11e5; inactive.
For CG14857 the deposit lists firefly reporter light, replicate 1 = 15402; Renilla control light, replicate 1 = 3250; inactive.
After knock-down of lncRNA:CR34024, the screen gave firefly reporter light, replicate 1 = 2778; Renilla control light, replicate 1 = 1274; inactive.
Against kmg, the entry reads firefly reporter light, replicate 1 = 2108; firefly reporter light, replicate 2 = 6226; Renilla control light, replicate 1 = 833; Renilla control light, replicate 2 = 2696; inactive.
Against gpp #1, the entry reads firefly reporter light, replicate 1 = 7491; Renilla control light, replicate 1 = 2477; inactive.
For gpp #2 the deposit lists firefly reporter light, replicate 1 = 7440; Renilla control light, replicate 1 = 1259; inactive.

Quoted from the entries so far for reference:
DhpD — firefly reporter light, replicate 1 = 5931; Renilla control light, replicate 1 = 2250; Outcome = inactive
Tango14 — firefly reporter light, replicate 1 = 4165; firefly reporter light, replicate 2 = 9427; Renilla control light, replicate 1 = 1472; Renilla control light, replicate 2 = 3445; Outcome = inactive
CG31792 — firefly reporter light, replicate 1 = 1713; firefly reporter light, replicate 2 = 6944; Renilla control light, replicate 1 = 352; Renilla control light, replicate 2 = 2284; Outcome = inactive
